Test results from PubChem BioAssay AID2685 (National Center for Advancing Translational Sciences (NCATS), 2010).
Out of some 320,000 compounds screened, about 2,100 (0.66%) were called active. This list was built around the results that the source calls inconclusive (neither active nor inactive); the mix of calls is not that of the screen. The call rests on the fitted dose curve; in most records, active means well fitted inhibition curve with a large enough effect in the signal ratio, with a control signal flat (not every such curve was filed as active); inconclusive means small, poorly fitted or top-dose-only effect, or effect the other way, or a change in a side signal; inactive means flat fitted curve, though single readings scatter; the % refers to the signal ratio. A potency beside an inconclusive call is a rough fit, not a confirmed value.
On the % scale 0 is the no-effect control and ±100 the full control effect; potency means the concentration at half of the fitted maximal effect.

Experiment: qHTS Assay for Lipid Storage Modulators in Drosophila S3 Cells
Details: BODIPY lipid droplet fluorescence, 18-24 h, cells fed with added oleic acid; lipid storage change, negative = inhibition: at 46.1 µM (top of the series) unless noted
In short: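 Drosophila S3 cells got compounds at several concentrations plus oleic acid (400 uM solution). Laser-scanning cytometry with 488 nm excitation read lipid droplets at 500-530 nm and cells at 575-640 nm. Percent activity was relative to 20 uM Triacsin C.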
For `O=C(O)C1=C[C@@H](C2CC2)C[C@@H](OCc2ccc(CO)cc2)O1`, the lipid storage change, negative = inhibition was inconclusive: -28.4%. In the case of `CC(C)C[C@H]1CN=C(N(C)C)N1CC1CCCCCC1`, the Potency is reported as inconclusive: 6510 nM [activator, single point]. For `Cc1cc(C)nc(SC2CCCCC2NS(=O)(=O)c2ccccc2)n1` (stereo not given), the lipid storage change, negative = inhibition was inconclusive: 2.31%. For `Cc1ccc(S(=O)(=O)Nc2ncnc3ccccc23)cc1`, the lipid storage change, negative = inhibition was inconclusive: -15.3%. In the case of `Cc1ccc(CNc2c(C=O)c(=O)[nH]c3ccccc23)cc1`, the lipid storage change, negative = inhibition is reported as inconclusive: 42.9%. For `O=C1NCCN1C(=O)c1ccccc1F`, the lipid storage change, negative = inhibition was inconclusive: -5.19%. With `O=C(Nc1ccc2c(c1)OCO2)Nc1ccc(F)cc1F` the Potency was inconclusive: 20000 nM [activator, single point]. With `COc1ccc(CNC(=O)COC(=O)c2cc(-c3ccc(Cl)s3)nc3ccccc23)cc1` the Potency was inconclusive: 13000 nM [activator, partial curve, poor fit]. For `Cc1ccc(NC(=O)/C(=C\c2ccc([N+](=O)[O-])cc2)NC(=O)c2ccccc2)cc1`, the lipid storage change, negative = inhibition was inconclusive: -30.1%. In the case of `Cc1ccc(SCC(=O)NC(=O)NC(C)C)c(C)c1`, the lipid storage change, negative = inhibition is reported as inconclusive: 16.4%. For `Cc1ccc(-c2noc(CCC(=O)Nc3cccc(C#N)c3)n2)cc1`, the lipid storage change, negative = inhibition was inconclusive: 14.8%. In the case of `CCCc1[nH]nc2c1C(c1ccc(OCCN3CCOCC3)c(OCC)c1)C(C#N)=C(N)O2` (stereo not given), the lipid storage change, negative = inhibition is reported as inconclusive: -35.3%. For `Cc1cc2c(cc1S(=O)(=O)Nc1cccc(C)c1C)OCC(=O)N2`, the lipid storage change, negative = inhibition was inconclusive: -2.47%. For `O=[N+]([O-])c1cc(Cl)cc(C2=NCCN2)c1`, the lipid storage change, negative = inhibition was inconclusive: 18.9%. For `COc1ccc(NC(=O)C2(c3ccc(NC(=O)c4ccc(OC(C)=O)cc4)cc3)CCCC2)cc1`, the lipid storage change, negative = inhibition was inconclusive: -13.8%. With `CCOc1ccc(/C=C/C(=O)c2c(O)cc(C)oc2=O)cc1` the lipid storage change, negative = inhibition was inconclusive: -11.2%. With `COc1ccccc1N1CCN(C(=O)c2cccc(N3C(=O)NC4CC3(C)Oc3c(OC)cccc34)c2)CC1` (stereo not given) the lipid storage change, negative = inhibition was inconclusive: 39%. For `Cc1ccc(NC(=O)CSCC(=O)N2CCCc3ccccc32)cc1`, the lipid storage change, negative = inhibition was “inconclusive”. For `COC(=O)c1cc(=O)nc2scc(C)n12`, the lipid storage change, negative = inhibition was inconclusive: 4.46%. With `CC(C)c1nc(SCC(=O)Nc2ccc(N(C)C)cc2)c2ccccc2n1` the lipid storage change, negative = inhibition was inconclusive: 0.867% [at 9.22 µM]. With `Cc1c(-n2cc(C(=O)c3cc(Cl)ccc3O)cc(C#N)c2=O)c(=O)n(-c2ccccc2)n1C` the Potency was inconclusive: 1840 nM [activator, partial curve, poor fit]. For `Cc1nc(N)sc1-c1csc(Nc2ccccc2)n1`, the lipid storage change, negative = inhibition was inconclusive: -20.5%. With `Cc1cccc(/C=C2\Sc3ccc(C(=O)N4CCCCC4)cc3N(C)C2=O)c1` the Potency was inconclusive: 4610 nM [falling, single point]. With `CC1CN(C(=O)Cn2c(=O)oc3ccccc32)CC(C)O1` (stereo not given) the “lipid storage change, negative = inhibition” value was inactive: 17.6%. In the case of `Cc1cc2c(cc(C(=O)OC(C(=O)NCc3ccco3)C(C)C)n2C)o1` (stereo not given), the lipid storage change, negative = inhibition is reported as inconclusive: 15.7%. In the case of `CCn1c(SCC(=O)Nc2ccccc2)nnc1-c1ccc(S(=O)(=O)N2CCOCC2)cc1`, the lipid storage change, negative = inhibition is reported as inconclusive: 25%. With `COC(=O)C1=C(C)NC(C)=C(C(=O)OC)C1C(=O)OCCN1C(=O)c2ccccc2C1=O` the Potency was inconclusive: 8200 nM [activator, partial curve]. For `COc1ccccc1OCC(=O)N/N=C/C=C/c1ccc([N+](=O)[O-])o1`, the Potency was inconclusive: 18400 nM [falling, partial curve, poor fit]. With `CCCN(C(=O)c1c(-c2ccccc2)noc1C)c1c(N)n(Cc2ccccc2)c(=O)[nH]c1=O` the Potency was active: 1840 nM. In the case of `COc1ccc(NC(=O)COc2ccccc2F)cc1S(=O)(=O)N1CCCCC1`, the lipid storage change, negative = inhibition is reported as inconclusive: -83.5%. For `Cc1nnc(SCC(=O)NC2CCC(C)CC2)s1` (stereo not given), the lipid storage change, negative = inhibition was “inconclusive”. In the case of `C=CCN(C(=O)Nc1ccc2oc(C)nc2c1)c1ccccc1`, the lipid storage change, negative = inhibition is reported as inconclusive: -21.2%. For `O=C(Nc1cc(S(=O)(=O)N2CCOCC2)ccc1N1CCCC1)c1ccc2c(c1)S(=O)(=O)c1ccccc1C2=O`, the lipid storage change, negative = inhibition was inconclusive: -30.3%. With `Cc1cccnc1NC(=O)CNC(=O)C1CCCCC1` the Potency was inconclusive: 4.6 nM [activator, full curve, poor fit]. With `CC(C)Oc1cccc(-c2cc(C(=O)N3CCN(S(C)(=O)=O)CC3)c3ccccc3n2)c1` the lipid storage change, negative = inhibition was inconclusive: -41.7%. With `C/C(=N\NC(=O)c1c(Cl)cnn1C)c1cccc(NC(=O)C(C)C)c1` the lipid storage change, negative = inhibition was inconclusive: 19.8%. With `CCCc1cnc(N2CCN(C(=O)c3ccc(F)cc3)CC2)nc1` the lipid storage change, negative = inhibition was inconclusive: 13.2%. With `CCOC(=O)CCc1c(C)c2ccc(OCc3nn[nH]n3)cc2oc1=O` the Potency was inconclusive: 4.1 nM [falling, full curve, poor fit]. For `O=C(Cc1cccc(NC(=O)C2CCN(C(=O)C3CCCC3)CC2)c1)Nc1cccc(C(=O)N2CCCC2)c1`, the Potency was inconclusive: 291 nM [falling, partial curve, poor fit]. With `Cc1ccc(S(=O)(=O)N(C)CC(=O)N2CCOCC2)cc1` the lipid storage change, negative = inhibition was inconclusive: -1.88%. For `O=S(=O)(c1ccccc1)c1nnn2c1nc(NC1CCN(Cc3ccccc3)CC1)c1ccccc12`, the “lipid storage change, negative = inhibition” value was inactive: 9.25%. With `Cc1ccsc1C(=O)NNC(=O)COc1ccccc1Cl` the lipid storage change, negative = inhibition was “inconclusive”. For `CC(=O)OCC1=C(C(=O)O)N2C(=O)C(NC(=O)CC(C)c3ccccc3)C2SC1` (stereo not given), the lipid storage change, negative = inhibition was inconclusive: 22.9%. In the case of `CCOC(=O)C1=C(CN2CCSCC2)NC(=O)NC1c1ccc2c(c1)OCO2` (stereo not given), the lipid storage change, negative = inhibition is reported as inconclusive: 23.4%. For `CC(=O)OCCN(CCCn1c(-c2ccncc2)nc2ccccc21)c1nc(CN2CCCCC2)cs1`, the lipid storage change, negative = inhibition was inconclusive: -3.69%. In the case of `O=C(Nc1cccnc1)c1sc2cccc(F)c2c1Cl`, the lipid storage change, negative = inhibition is reported as inconclusive: -14.6%. For `CN(CC(=O)Nc1ccc(F)cc1)C(=O)c1ccc(-c2ccc(Cl)cc2)o1`, the lipid storage change, negative = inhibition was inconclusive: -2.57%. With `CCC(C)[C@H](NC(=O)NCc1ccc(S(N)(=O)=O)cc1)C(=O)O` (stereo not given in full) the Potency was inconclusive: 18400 nM [activator, single point]. In the case of `COc1ccc(N(C)S(=O)(=O)c2cccc(C(=O)NCC(c3cccs3)N(C)C)c2)cc1` (stereo not given), the lipid storage change, negative = inhibition is reported as inconclusive: 18.5%. With `COCCNC(=O)NC(=O)COC(=O)c1ccc2[nH]c3c(c2c1)CCCC3` the lipid storage change, negative = inhibition was inconclusive: -18.6%. With `CCCc1nc2n[nH]c(N)c2c2c1CCCC2` the Potency was inconclusive: 731 nM [activator, full curve]. For `O=C(O)CNC(=O)/C(=C/c1cccc([N+](=O)[O-])c1)NC(=O)c1ccco1`, the Potency was inconclusive: 326 nM [falling, full curve, poor fit]. In the case of `COc1cccc(C2CC(c3ccccc3OC)n3ncnc3N2)c1` (stereo not given), the lipid storage change, negative = inhibition is reported as inconclusive: 9.15% [at 9.22 µM]. For `Cc1nnc2ccc(-c3ccc(NS(=O)(=O)c4ccccc4[N+](=O)[O-])cc3)nn12`, the lipid storage change, negative = inhibition was inconclusive: -75.2%. In the case of `COC(=O)C1=C(C)N(CC2CC2)C(=NCc2cc(OC)c(OC)c(OC)c2)N[C@H]1c1ccccc1`, the lipid storage change, negative = inhibition is reported as inconclusive: 19.5%. For `N=c1c2c(-c3ccccc3)c(-c3ccccc3)oc2ncn1CCN1CCOCC1`, the lipid storage change, negative = inhibition was inconclusive: -5.65%. In the case of `COC(=O)c1[nH]c(=O)c2ccccc2c1OCc1ccccc1`, the lipid storage change, negative = inhibition is reported as inconclusive: -67.3%. In the case of `Brc1ccccc1OCCCOc1cccc2cccnc12`, the Potency is reported as inconclusive: 1840 nM [activator, partial curve]. With `COc1ccc(CSCCN)cc1Cl` the Potency was inconclusive: 4.1 nM [falling, full curve, poor fit]. For `O=C(/C=C/c1ccccc1)NC1CCS(=O)(=O)C1` (stereo not given), the Potency was inconclusive: 29100 nM [activator, single point]. In the case of `N#CCC(=O)Nc1ccc(C(=O)NCCC(c2ccccc2)c2ccccc2)cc1`, the lipid storage change, negative = inhibition is reported as inconclusive: -14.2%. For `CCC(=O)N1CCc2cc(S(=O)(=O)N(CC)c3cccc(C)c3)ccc21`, the Potency was inconclusive: 231 nM [activator, full curve, poor fit]. With `CCn1nc(C(=O)OCC(=O)c2c[nH]c3ccccc23)c2ccccc2c1=O` the lipid storage change, negative = inhibition was inconclusive: -20.2%. In the case of `CCOC(=O)[C@H]1[C@H]2COc3ccc(C)cc3[C@@H]2N2C(=O)CN(Cc3ccc(OC)cc3)C(=O)[C@@]12C`, the lipid storage change, negative = inhibition is reported as inconclusive: 15%. With `Cc1c(C(=O)C(=O)N2c3ccccc3CC2C)c2ccccc2n1C` (stereo not given) the Potency was inconclusive: 29100 nM [cytotoxic, single point]. With `COC(=O)C1C(c2ccc(N(C)C)cc2)C(C(=O)OC)S(=O)(=O)CS1(=O)=O` (stereo not given) the lipid storage change, negative = inhibition was inconclusive: -34.1% [at 9.22 µM]. In the case of `COc1ccc2cc(C3c4cc(OC)c(OC)cc4CCN3C(=O)c3ccco3)c(=O)[nH]c2c1` (stereo not given), the lipid storage change, negative = inhibition is reported as inconclusive: 9.33%. For `CC1CCC2(CC1)NC(=S)N(c1ccccc1)N2` (stereo not given), the lipid storage change, negative = inhibition was inconclusive: 75.8%. In the case of `CCc1nc2scc(-c3ccc(C)cc3)c2c(=O)n1N`, the lipid storage change, negative = inhibition is reported as inconclusive: 9.65%. For `CCOC(=O)/C=C/C(=O)N1CCN(C(=O)/C=C/C(=O)OCC)CC1`, the lipid storage change, negative = inhibition was inconclusive: -29.9%. With `CCOc1cccc(/C=C/c2ccc3cccc(O)c3n2)c1OC` the lipid storage change, negative = inhibition was inconclusive: -34.5%. For `CCN(CC)C(=O)c1sc(NC(=O)c2ccncc2)c(C(=O)OC)c1C`, the Potency was inconclusive: 411 nM [rising, partial curve, poor fit]. In the case of `CCOc1ccc(C)cc1S(=O)(=O)NC1CCCCCC1`, the lipid storage change, negative = inhibition is reported as inconclusive: -0.285%. With `CCN(CC)c1ccc(/C=N/NC(=O)c2nnn(-c3nonc3N)c2-c2ccc(C)cc2)cc1` the lipid storage change, negative = inhibition was inconclusive: 8.29%. With `C/C(=N\NC(=O)c1cccc([N+](=O)[O-])c1)c1ccco1` the Potency was inconclusive: 29100 nM [activator, single point].
